Step yield and cyclisation yield data for 3 substances are collected here from patent US12258422B2 (NATIONAL TSING HUA UNIVERSITY, priority 2020, dated 2025).

A short description of the data set: general procedure: solution-phase peptide synthesis; EDCI/HOBt/DIPEA with ZrOCl2 catalyst.

As to “Fmoc-Gly-Asp(O^tBu)-D-Phe-Pip(Boc)-Arg(Mtr)-OMe”, the step yield (coupling step, relative to Fmoc-D-Phe-Pip(Boc)-Arg(Mtr)-OMe, 2HCl salt, TFA salt) is recorded as 83%.

On to cyclo-Gly-Asp-D-Phe-Pip-Arg ⋅ 2HCl, for which, where the note is “late stage modification step, relative to cyclo-Gly-Asp(OtBu)-D-Phe-Pip(Boc)-Arg(Mtr), 2HCl”, the step yield is 94%.

Regarding “cyclo-Gly-Asp(O^tBu)-D-Phe-Pip(Boc)-Arg(Mtr)”, the cyclisation yield (cyclisation step, relative to Fmoc-Gly-Asp(OtBu)-D-Phe-Pip(Boc)-Arg(Mtr)-OMe, 2HCl salt, TFA salt) turned out to be 41%.
